Measurements published in PMC12333249.

By UniProt entry, the sequences of proteins in these tests, tags left out.
UniProt Q7KZF4: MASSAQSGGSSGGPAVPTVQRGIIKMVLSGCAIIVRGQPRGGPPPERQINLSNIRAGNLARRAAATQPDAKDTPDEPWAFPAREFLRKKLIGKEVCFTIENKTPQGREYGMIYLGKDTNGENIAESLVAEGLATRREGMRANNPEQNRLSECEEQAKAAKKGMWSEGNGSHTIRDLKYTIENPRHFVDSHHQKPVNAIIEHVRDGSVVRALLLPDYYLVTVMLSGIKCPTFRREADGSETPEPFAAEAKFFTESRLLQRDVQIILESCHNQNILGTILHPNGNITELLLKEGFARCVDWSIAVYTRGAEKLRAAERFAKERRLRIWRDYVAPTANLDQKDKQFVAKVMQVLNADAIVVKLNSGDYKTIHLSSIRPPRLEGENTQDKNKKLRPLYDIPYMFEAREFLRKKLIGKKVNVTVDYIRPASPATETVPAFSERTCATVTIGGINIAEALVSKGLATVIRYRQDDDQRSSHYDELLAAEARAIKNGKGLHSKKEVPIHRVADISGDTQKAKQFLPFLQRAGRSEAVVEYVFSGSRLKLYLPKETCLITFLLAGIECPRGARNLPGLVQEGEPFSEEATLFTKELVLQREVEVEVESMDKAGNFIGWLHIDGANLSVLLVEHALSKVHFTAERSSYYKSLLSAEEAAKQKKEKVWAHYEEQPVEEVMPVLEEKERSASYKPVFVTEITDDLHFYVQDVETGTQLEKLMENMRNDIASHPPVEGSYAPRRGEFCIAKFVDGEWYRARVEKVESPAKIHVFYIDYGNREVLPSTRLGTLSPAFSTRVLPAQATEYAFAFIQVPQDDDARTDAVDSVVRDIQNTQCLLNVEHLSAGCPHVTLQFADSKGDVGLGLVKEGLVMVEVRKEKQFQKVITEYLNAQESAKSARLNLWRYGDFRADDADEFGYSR

Target: Staphylococcal nuclease and Tudor domain containing 1 (SND1) (human (endogenous in PCa cell lines; DU-145 and PC-3 are the lines used)) (UniProt Q7KZF4)
Assay: affinity purification with mass spectrometry; Co-IP-LC/MS: beads with 2 µg SND1 antibody, cell lysate supernatant, overnight at 4 ℃, three washes, eluted proteins detected by LC/MS

B1: metadherin (MTDH) (protein, UniProt Q86UE4 1-582)
chain: MAARSWQDELAQQAEEGSARLREMLSVGLGFLRTELGLDLGLEPKRYPGWVILVGTGALGLLLLFLLGYGWAAACAGARKKRRSPPRKREEAAAVPAAAPDDLALLKNLRSEEQKKKNRKKLSEKPKPNGRTVEVAEGEAVRTPQSVTAKQPPEIDKKNEKSKKNKKKSKSDAKAVQNSSRHDGKEVDEGAWETKISHREKRQQRKRDKVLTDSGSLDSTIPGIENTITVTTEQLTTASFPVGSKKNKGDSHLNVQVSNFKSGKGDSTLQVSSGLNENLTVNGGGWNEKSVKLSSQISAGEEKWNSVSPASAGKRKTEPSAWSQDTGDANTNGKDWGRSWSDRSIFSGIGSTAEPVSQSTTSDYQWDVSRNQPYIDDEWSGLNGLSSADPNSDWNAPAEEWGNWVDEERASLLKSQEPIPDDQKVSDDDKEKGEGALPTGKSKKKKKKKKKQGEDNSTAQDTEELEKEIREDLPVNTSKTRPKQEKAFSLKTISTSDPAEVLVKNSQPIKTLPPATSTEPSVILSKSDSDKSSSQVPPILQETDKSKSNTKQNSVPPSQTKSETSWESPKQIKKKKKARRET
binding: binds

These are yes or no findings as the source states them, for the method shown. In cells and extracts the contact can be indirect. Here binding means that the protein was enriched with, or labelled near, the bait; the list need not be complete.
